This note sets out measurements from patent publication US7919579B2, “Imaging and therapeutic targeting of prostate and bladder tissues” (The Board of Regents of the University of Texas System, priority 2006, dated 2011).

This series relates to PCa cells (LNCaP, C4-2, LAPC4 and PC3). In words: cellular localization of peptides by fluorescence microscopy. Type of series: cell-based. The conditions noted are these: 5 μM peptide, 30 minutes; four PCa cells.

On to “^FITC-G- RRRRRRRRRRR -GG-FQLRQAALVASRKGE [R11AAL]”, for which the cellular localization result is “localized in the cytosol with few nuclear staining”. For “^FITC-G-RRRRRRRRRRR-GGG-FQLRQPPLVPSRKGE (GRRRRRRRRRRRGGGFQLRQPPLVPSRKGE) [R11PPL, FITC-R11 conjugated with PPL (DOC-2/DAB2 PR domain) at C-terminus]” the value was “localized in the cytosol with few nuclear staining”.
